Results deposited as PubChem BioAssay AID1259405 (NCATS, 2018).
Shown is a random part of about 50,000 reagents tested. In the full data, about 4,000 (8%) are marked active. 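Mouse siRNA library applied to hamster cells; one well for each siRNA.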 A number with no mark means an inactive call. The numbers tell different reagents against one gene apart. Reagent sequences are not shown.

Purpose: 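Mouse-designed siRNAs used to find CHO productivity engineering targets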 (primary screen)
Cell system: Chinese hamster CHO-K1 ovary cells with stable secreted eGFP expression
Knock-down reagent: single siRNA against mouse genes, 0.8 pmol siRNA per well (2 µl of 400 nM stock)
Timing: 3 days
Read-out: 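Percent of the per-plate non-targeting control median for intracellular GFP per well by laser scanning cytometry and for cell viability by ATP luminescence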
Direction: GFP, % of control: higher = more GFP per well, higher productivity; viability (ATP), % of control: higher = more viable cells (more ATP)
Hit rule: 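Called active when intracellular GFP, relative to negative control, is at or above 120%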

| Target gene | siRNA no. | GFP, % of control | viability (ATP), % of control |
| --- | --- | --- | --- |
| Cntn4 (contactin 4) | 1 | 80.6 | 60.8 |
| Cntn4 (contactin 4) | 2 | 60.5 | 57.2 |
| Cntn4 (contactin 4) | 3 | 87.1 | 86.3 |
| Exoc4 (exocyst complex component 4) | 1 | 100 | 91.5 |
| Exoc4 (exocyst complex component 4) | 2 | 139 (active) | 65.1 |
| Exoc4 (exocyst complex component 4) | 3 | 95.8 | 75.7 |
| Fbxo36 (F-box protein 36) | 1 | 69 | 80.5 |
| Fbxo36 (F-box protein 36) | 2 | 118 | 89.4 |
| Fbxo36 (F-box protein 36) | 3 | 63.6 | 84.7 |
| Ubb (ubiquitin B) | 1 | 50.2 | 74.1 |
| Ubb (ubiquitin B) | 2 | 106 | 65.9 |
| Ubb (ubiquitin B) | 3 | 74.9 | 77.8 |
| Or4k36 (olfactory receptor family 4 subfamily K member 36) | 1 | 59.6 | 44.4 |
| Or4k36 (olfactory receptor family 4 subfamily K member 36) | 2 | 63.5 | 37.6 |
| Or4k36 (olfactory receptor family 4 subfamily K member 36) | 3 | 59.3 | 98.6 |
| Fuom (fucose mutarotase) | 1 | 78.4 | 62.6 |
| Fuom (fucose mutarotase) | 2 | 20.9 | 22.5 |
| Fuom (fucose mutarotase) | 3 | 60.6 | 87.2 |
| Or12d17 (olfactory receptor family 12 subfamily D member 17) | 1 | 70.1 | 103 |
| Or12d17 (olfactory receptor family 12 subfamily D member 17) | 2 | 75.6 | 98.2 |
| Or12d17 (olfactory receptor family 12 subfamily D member 17) | 3 | 46.8 | 60.8 |
| Rdh11 (retinol dehydrogenase 11) | 1 | 94.1 | 80.9 |
| Rdh11 (retinol dehydrogenase 11) | 2 | 46.6 | 78.7 |
| Rdh11 (retinol dehydrogenase 11) | 3 | 87.1 | 85.1 |
| Ccdc43 (coiled-coil domain containing 43) | 1 | 72.3 | 88.5 |
| Ccdc43 (coiled-coil domain containing 43) | 2 | 69.5 | 77.4 |
| Ccdc43 (coiled-coil domain containing 43) | 3 | 134 (active) | 123 |

Hits, of those listed so far:
| Target gene | siRNA no. | GFP, % of control | viability (ATP), % of control |
| --- | --- | --- | --- |
| Exoc4 (exocyst complex component 4) | 2 | 139 (active) | 65.1 |
| Ccdc43 (coiled-coil domain containing 43) | 3 | 134 (active) | 123 |

Continued.
| Target gene | siRNA no. | GFP, % of control | viability (ATP), % of control |
| --- | --- | --- | --- |
| Tril (TLR4 interactor with leucine-rich repeats) | 1 | 115 | 142 |
| Tril (TLR4 interactor with leucine-rich repeats) | 2 | 101 | 103 |
| Tril (TLR4 interactor with leucine-rich repeats) | 3 | 46.2 | 31.6 |
| St8sia4 (ST8 alpha-N-acetyl-neuraminide alpha-2,8-sialyltransferase 4) | 1 | 50 | 45.1 |
| St8sia4 (ST8 alpha-N-acetyl-neuraminide alpha-2,8-sialyltransferase 4) | 2 | 112 | 125 |
| St8sia4 (ST8 alpha-N-acetyl-neuraminide alpha-2,8-sialyltransferase 4) | 3 | 109 | 80.6 |
| 2210409E12Rik (RIKEN cDNA 2210409E12 gene) | 1 | 157 (active) | 124 |
| 2210409E12Rik (RIKEN cDNA 2210409E12 gene) | 2 | 96.6 | 105 |
| 2210409E12Rik (RIKEN cDNA 2210409E12 gene) | 3 | 102 | 60.3 |
| Kremen2 (kringle containing transmembrane protein 2) | 1 | 110 | 65.4 |
| Kremen2 (kringle containing transmembrane protein 2) | 2 | 77.1 | 68.5 |
| Kremen2 (kringle containing transmembrane protein 2) | 3 | 70.4 | 72.8 |
| Tnk1 (tyrosine kinase, non-receptor, 1) | 1 | 54.1 | 52.1 |
| Tnk1 (tyrosine kinase, non-receptor, 1) | 2 | 57.3 | 83.5 |
| Tnk1 (tyrosine kinase, non-receptor, 1) | 3 | 41.8 | 55.9 |
| Tppp3 (tubulin polymerization-promoting protein family member 3) | 1 | 59.9 | 72.1 |
| Tppp3 (tubulin polymerization-promoting protein family member 3) | 2 | 49.2 | 73.1 |
| Tppp3 (tubulin polymerization-promoting protein family member 3) | 3 | 59.3 | 69.7 |
| Mettl24 (methyltransferase like 24) | 1 | 40.6 | 37.2 |
| Mettl24 (methyltransferase like 24) | 2 | 82.9 | 91.8 |
| Mettl24 (methyltransferase like 24) | 3 | 77.5 | 132 |
| Atp7b (ATPase, copper transporting, beta polypeptide) | 1 | 32.5 | 88.2 |
| Atp7b (ATPase, copper transporting, beta polypeptide) | 2 | 59.5 | 71 |
| Atp7b (ATPase, copper transporting, beta polypeptide) | 3 | 77.3 | 90.8 |
| Adrm1 | 1 | 58.6 | 62.9 |
| Adrm1 | 2 | 62.3 | 42.9 |
| Adrm1 | 3 | 81.4 | 76.8 |
| Rxfp4 (relaxin family peptide receptor 4) | 1 | 64.1 | 81 |
| Rxfp4 (relaxin family peptide receptor 4) | 2 | 36.1 | 41.3 |
| Rxfp4 (relaxin family peptide receptor 4) | 3 | 46.9 | 64.8 |
